Laboratory results taken from publication PMC9675287.
These are yes or no findings as the source states them, for the method shown. Some results given as binding are weak or reduced against the parent protein; the word gives no strength.

By UniProt entry, the sequences of proteins in these tests, tags left out. Residues count along the entry.
UniProt P05113, residues 20-134: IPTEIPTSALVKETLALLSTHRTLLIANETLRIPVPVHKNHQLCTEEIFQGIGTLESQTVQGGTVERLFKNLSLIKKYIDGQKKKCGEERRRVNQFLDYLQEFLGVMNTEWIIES

Molecular target: T1, IL-5R on HEK 293T-IL-5R stable cells (UniProt Q01344)
T1 sequence: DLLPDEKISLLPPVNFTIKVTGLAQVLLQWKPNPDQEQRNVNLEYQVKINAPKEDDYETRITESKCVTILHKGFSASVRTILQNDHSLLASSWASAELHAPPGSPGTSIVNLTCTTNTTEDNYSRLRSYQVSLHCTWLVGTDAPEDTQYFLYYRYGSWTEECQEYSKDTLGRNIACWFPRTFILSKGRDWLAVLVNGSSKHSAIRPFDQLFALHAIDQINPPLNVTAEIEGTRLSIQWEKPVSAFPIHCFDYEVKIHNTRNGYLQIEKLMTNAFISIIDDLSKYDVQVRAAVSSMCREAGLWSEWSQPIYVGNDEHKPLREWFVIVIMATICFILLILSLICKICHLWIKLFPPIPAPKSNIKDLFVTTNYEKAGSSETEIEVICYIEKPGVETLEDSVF
Assay: flow cytometry on cells; HEK 293T-IL-5R stable cells incubated with purified biotin-labelled IL-5-Fc and a gradient of IL-5 Nbs or Nucala analogue; stained with streptavidin-PE; MFI read by FACS; only the binder purified

## human IL-5-Fc (from UniProt P05113 20-134) (Fc fusion)
  binding: binds
